Assay results from PubChem BioAssay AID1347423 (Functional Genomics Laboratory (NCATS/FGL), 2020).
Screen size: about 52,000 sequences; about 210 (0.4%) were called active.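 Rule for the calls: active = gene whose silencing raises cell survival under the drug, median off-target-corrected z-score across its silencing RNAs 2 or more; inactive = the rest.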 This is one part of the list.

Experiment: Resistance to Poly (ADP-Ribose) Polymerase inhibitor: Gene Identification via Genome-wide siRNA Screen
Details: mouse BRCA2 R2336H ES cells, olaparib, CellTiter-Glo viability; active compounds read high
How it was run: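 Mouse BRCA2 R2336H ES cells were reverse-transfected with siRNA (20 nM final), treated at 48 h with 500 nM olaparib, and read by CellTiter-Glo after 72 h. Scores: MAD-based z per siRNA, median per gene, seed off-target correction.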

Sequence | z-score
GCUACAAUCUUUUAGGUCUTT against Tcta | inactive: -0.743
GCCACAAUUUUACUUGGUATT against Ap4s1 | inactive: -0.577
GGCUAUCUACAAAAUGGUGTT against Vsnl1 | inactive: -0.64
GCAGCGAAGAUUUUAAUUCTT against Rerg | inactive: 0.235
GGUAAUUAUGCUGCUUAUGTT against 6820402O20Rik | inactive: -0.364
GGAGACUGGAUUUUUGGUATT against Ccr1l1 | inactive: 1.2
GGAAGAACUAGAGUCAUAUTT against Eps8l1 | inactive: 0.403
GGAUAUCCACAGAAAAGGGTT against Chst8 | inactive: 0.564
GGGAUCACAAUGAAGAAAUTT against Chgb | inactive: -1.54
GGACACAGACCUUUGUUAATT against P2y5 | inactive: 0.354
GGAACAGCAAACUGAAAACTT against 2200003E03Rik | inactive: 0.8
GCUCCAAUGAGAUCAUUCUTT against Gemin6 | inactive: 1.83
GCACGUUCUUUCAAGAAAGTT against 1110014K08Rik | inactive: -0.36
GGAAUAAAGCUCAUCUACGTT against BC042513 | inactive: 2.79
GGCUGAGUGGCUCUAUAGUTT against 2810403B08Rik | inactive: -0.274
GGAAGGACUUAAAUGAUGCTT against AB030190 | inactive: -0.908
GGGAGCUCUAAAAAAAGUGTT against Olfr390 | inactive: 0.0742
CAAACUGGGUCCCAAUGAATT against Ndufa4 | inactive: -2.03
GGGAAGGUAUAAGACCUUUTT against Olfr509 | inactive: 0.0817
GCCUUUAGCUCCAUUCACUTT against Zfyve1 | inactive: -0.541
GGGCAGGACUUUACCUUUATT against 2400003L07Rik | inactive: -0.0384
CGGCAAUUUGAGUUGAAAATT against 4930403L05Rik | inactive: -0.112
GGAAGUUGUCCAAGCAAAUTT against Sesn3 | inactive: 0.643
GCCUGAAUUUUUGGGCAUATT against Ripk2 | inactive: 0.0964
GGCAGAACUCAAAUUCUUGTT against AW209491 | inactive: 0.0903
CGACCACUUGGUGAUGCUCTT against Chc1 | inactive: -0.298

Some of the entries above, reformatted:

| Sequence | z-score |
| --- | --- |
| GGAAUAAAGCUCAUCUACGTT against BC042513 | inactive: 2.79 |
| GGCUGAGUGGCUCUAUAGUTT against 2810403B08Rik | inactive: -0.274 |

(next part)

Sequence | z-score
GCCAAAGAUUAUCGAGUGUTT against A630065K24Rik | inactive: 0.783
CCGAGGAUGCUAUUUAAUCTT against Olfr183 | inactive: 0.192
GGAGAGACAGUUGUACACGTT against Oprs1 | inactive: -1.2
GGGACUAUUCCUCCAGAGUTT against Cast | inactive: 1.19
GGCAGCCAGUGUGCUAAAATT against Atp6v1h | inactive: 1.18
GGCUAAGGCCACAAAUGUGTT against Tacc3 | inactive: -1.69
GGACAUGGUACCACAGGAGTT against Odz4 | inactive: -1.51
GGUAAUUAAUUCAAAGCAGTT against Siat8d | inactive: 0.631
ACCUCAGACUCUUCAACUGTT against Olfr112 | inactive: -0.162
CGUCAGAUUGACAAGGCACTT against Serpinb7 | inactive: -1.24
CCAGUAUCACUAAAGCACATT against A030009B12Rik | inactive: 0.248
GGUAAUUACGACCUAUUGUTT against Aldh7a1 | inactive: 2
GGUCUACUGAUAUAAUCAATT against Kif11 | inactive: -1.97
GGUUGAGAUGUUCCAUAGATT against Gpr77 | inactive: 1.69
GCCCAGAGUGUUCAAGUGUTT against Zfp236 | inactive: 0.0942
GGAUAUGAUGUCAGACAACTT against Zdhhc13 | inactive: -0.447
CCCGACCACGUGUUUAUUGTT against Tnfsf12 | inactive: 0.729
GGAUGAUGAUGGCUUCAUCTT against 2610528J11Rik | inactive: 1.42
GCUCCUCUAUAUUUGAAAGTT against Cx3cl1 | inactive: -0.35
GGCGACAGCGUAAAAGUACTT against Lyst | inactive: -2.09
GCCUUCUGUGAGGAUCUUUTT against 3000002B06Rik | inactive: -1.75
CCAGCCUUCAAUUGUGGUCTT against Scn1b | inactive: 0.712
GCGCAUAUGGCUACGUUCATT against C630023L15Rik | inactive: -2.25
GGACAACUGAACUACCUCGTT against Paqr3 | inactive: -2.72
GGAAAGAAGGACAUGUUGCTT against Fbxo2 | inactive: 0.535
CGAAAACAGUUAGUUACCATT against Endogl1 | inactive: 0.128

Sequence | z-score
CCUGUGGGACUCAAUGUUGTT against 2310039H08Rik | inactive: -0.898
CGGGUCUCAGUCUUUCCUATT against 9930023K05Rik | inactive: 0.59
GGGUCUCUGUAUGCAUAUATT against Dbpht1 | inactive: 0.00114
GGUGCUACAAGUGUACUGATT against Zswim2 | inactive: 0.156
GGACUGAAUAUCUUCUUUGTT against Rrh | inactive: 0.471
GGAGACCCAAGUGAUUCUGTT against Eral1 | inactive: -0.881
GCAUCCUGGCUGCUAUCAUTT against Olfr399 | inactive: -1.94
CGUAUAAUGAGGAUGUGCUTT against D6Ertd365e | inactive: 1.06
GGGUCACUGAAGAUUAUAUTT against Inhbc | inactive: -0.986
GGUUAAGGAAGUAAAAAAGTT against Gsr | inactive: 1.25
GGGUUGGAACAAGGUAAUUTT against Usp16 | inactive: -2.1
GAUAGUGACAUUCUUGGAATT against Hspe1 | inactive: 0.725
GGAAUUAAUGGCAUAGACUTT against Col4a3bp | inactive: 1.1
GGGAACCACACAGAGAUAATT against Cd160 | inactive: -0.899
GGGCUAUCUAACAUUAACUTT against 2010208K18Rik | inactive: -0.15
GGAGUUCCUCAAACAGGAGTT against E330028A19Rik | inactive: -0.427
UAAAAUUCCCUUCUGCUCATT against Olfr814 | inactive: 1.69
GGUUUAAAGAAAGACUGAATT against 2810032G03Rik | inactive: -1.8
GGAGAAUAUGUCGUCAUGATT against Gabra3 | inactive: -1.4
GUUCCUCAGUAUGUUGCCATT against Olfr126 | inactive: -1.52
GGAAACAGAAGGAAUACUUTT against D15Ertd781e | inactive: 0.316
GCCUUCAACAUUCGGACUUTT against Dnase1 | inactive: -1.1
CGUAGCAAUCUUGGUUGCUTT against Hoxa3 | inactive: 0.734
GGAAGAGAAAGCAAAGUCATT against Ddx19 | inactive: 0.454
GGAAUCCAUGUUAGUAGCCTT against Lrsam1 | inactive: 0.152
GGUGGAGACUGUGUCUAGUTT against 9430057O19Rik | inactive: -0.604

Some of the entries above, reformatted:
Sequence,z-score
CCAGUAUCACUAAAGCACATT against A030009B12Rik,inactive: 0.248
GGUAAUUACGACCUAUUGUTT against Aldh7a1,inactive: 2
GGUGCUACAAGUGUACUGATT against Zswim2,inactive: 0.156
GAUAGUGACAUUCUUGGAATT against Hspe1,inactive: 0.725

Additional records

Sequence | z-score
UACUACAACCGCACAGUGATT against Tmc6 | inactive: -0.308
GGGAAAUUUCUCACUCUCUTT against Olfr1362 | inactive: 0.306
GCGAUAUAAUAUGGAAAGATT against Plcg2 | inactive: -0.331
GGGCUUCUGUGCAUUGCAUTT against Asb3 | inactive: 0.542
GGUGGUCUACAUAGCUUGUTT against Kdelr1 | inactive: 0.614
GGUCAGUCGGUUGUUACUATT against 5830472M02Rik | inactive: -1.74
GAAAAAUAAUGGAGUUUGGTT against D17Wsu155e | inactive: 0.781
CCAGUUUCGGAUUCAGUAGTT against Kb36 | inactive: -0.936
GGUCCUACUUGUUCAUUGATT against Il1rl1 | inactive: -0.537
GCCAGAGACACGAUCCUCUTT against 1110020M19Rik | inactive: -0.784
GGCAUAGCUCAGUGAUAGCTT against Tmem19 | inactive: 1.44
GGGUACGGUUCAGUGACAATT against 6030419C18Rik | inactive: 0.202
GGAUCUGAUAAACUCAUUCTT against Lad1 | inactive: 1.41
GCAGACAAUAUCUCUGAAUTT against Olfr459 | inactive: 0.49
GGACCUCUGUUUCCAGGAGTT against G6pc3 | inactive: 0.285
CGAUUCCCUGGUUAUGACUTT against Rpl5 | inactive: -3.11
GGUGGAUUUUAAGUUUCCUTT against Aurkc | inactive: 0.114
CGAAUAAACUUGAUUUGCCTT against Ier3 | inactive: 0.73
GGAGCUCAAACAGGAGAACTT against B230384L07 | inactive: 0.0277
GGAACGAGUUUUGAAAAAATT against Creb3l3 | inactive: 0.523
GGGAAACGUGAAUUAGUAATT against 1110051M20Rik | inactive: -0.195
GGAGGUACUUACAAUUUUGTT against Kpna3 | inactive: 2.14
GGAUAGCAAUUACCUGCUATT against Strap | inactive: -1.35
GGUCAAGUAUGAUGCUGAUTT against AI847670 | inactive: 0.515
GGUACAGAACAGGAUGGUATT against Zbtb33 | inactive: 0.328
GGGUACAAAGCAACAUUGGTT against Disp1 | inactive: -2.22
